Measured values published in patent publication US8298536B2, “Methods of treating inflammatory pain” (Pfizer Limited, priority 2008, dated 2012).
At least one compound was matched to its structure with a doubt left.

Tested on: OA hind limb of the rat (MMT)
Test: Osteoarthritis pain model (transection of the medial meniscus, MMT), weight bearing
Type: in vivo
Settings: 30 mg/kg oral gavage twice a day
Protocol: FIG. 1: Osteoarthritis pain model. […] Both antibodies were dissolved in a vehicle solution containing PBS+0.01% Tween 20. Celecoxib was used as positive control in the study. It was suspended in 0.5% methylcellulose and 0.025% Tween-20 and was administered by oral gavage (1 ml/kg) at 30 mg/kg, twice a day throughout the study period. Pain responses were assessed on day 2, 3, 7 and 10 following initiation of the pharmacology study (day 0) and were assessed in a fully blinded fashion. Data re the mean±SEM of 6 rats per group. *p<0.05 and p<0.01 vs baseline value (Dunnett's test in GraphPad Prism). In the figure, from left to right, bar 1=baseline, bars 2-5=null antibody, bars 6-9=1 mg/ml G2, bars 10-13=10 mg/ml G2, bars 14-17=Celecoxib 30 mg/ml.
Transection of the medial meniscus (MMT) in one hind knee of the rat results in the development of cartilage lesions and other changes in the joint similar to those that occur in OA. The resulting joint pain leads to the development of sustained changes in weight bearing (assessed using an incapacitance meter) in the rat hind limbs and mechanical (tactile) allodynia (assessed using von Frey filaments), in the hind paw, lasting several weeks. Studies were carried out accordingly to a blind protocol, where the investigator was not aware of the identity of the compound/control or the treatment of the animal.

Cc1ccc(-c2cc(C(F)(F)F)nn2-c2ccc(S(N)(=O)=O)cc2)cc1 [celecoxib, reference compound]
shift in weight bearing on the OA limb: reversed the shift in weight bearing on the OA limb to normal value
